Paper PMC5996148
Several values for one entry are separate records, joined by “and”; a condition that tells them apart may be missing. Identical values can stand only once. Some of the results follow. For some of these results: The exact form of the protein is not confirmed.

The chains behind the UniProt entries cited, without tags or fusion partners. Where a name states a change or a piece, a line headed by the entry shows the natural chain unless it says otherwise.
UniProt Q6P597: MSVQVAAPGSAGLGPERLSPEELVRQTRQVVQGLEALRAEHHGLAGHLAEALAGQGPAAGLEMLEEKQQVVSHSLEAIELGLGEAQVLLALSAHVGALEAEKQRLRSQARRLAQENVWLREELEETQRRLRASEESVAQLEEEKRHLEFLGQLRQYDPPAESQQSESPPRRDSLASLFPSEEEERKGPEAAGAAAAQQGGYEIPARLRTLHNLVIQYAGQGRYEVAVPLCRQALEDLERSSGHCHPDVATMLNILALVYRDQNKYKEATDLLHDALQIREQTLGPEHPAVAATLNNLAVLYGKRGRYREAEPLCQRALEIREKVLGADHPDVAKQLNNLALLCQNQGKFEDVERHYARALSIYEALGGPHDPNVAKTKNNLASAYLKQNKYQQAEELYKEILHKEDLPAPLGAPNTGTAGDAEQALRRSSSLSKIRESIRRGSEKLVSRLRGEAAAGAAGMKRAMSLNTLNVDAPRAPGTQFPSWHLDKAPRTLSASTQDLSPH
UniProt Q9NSK0: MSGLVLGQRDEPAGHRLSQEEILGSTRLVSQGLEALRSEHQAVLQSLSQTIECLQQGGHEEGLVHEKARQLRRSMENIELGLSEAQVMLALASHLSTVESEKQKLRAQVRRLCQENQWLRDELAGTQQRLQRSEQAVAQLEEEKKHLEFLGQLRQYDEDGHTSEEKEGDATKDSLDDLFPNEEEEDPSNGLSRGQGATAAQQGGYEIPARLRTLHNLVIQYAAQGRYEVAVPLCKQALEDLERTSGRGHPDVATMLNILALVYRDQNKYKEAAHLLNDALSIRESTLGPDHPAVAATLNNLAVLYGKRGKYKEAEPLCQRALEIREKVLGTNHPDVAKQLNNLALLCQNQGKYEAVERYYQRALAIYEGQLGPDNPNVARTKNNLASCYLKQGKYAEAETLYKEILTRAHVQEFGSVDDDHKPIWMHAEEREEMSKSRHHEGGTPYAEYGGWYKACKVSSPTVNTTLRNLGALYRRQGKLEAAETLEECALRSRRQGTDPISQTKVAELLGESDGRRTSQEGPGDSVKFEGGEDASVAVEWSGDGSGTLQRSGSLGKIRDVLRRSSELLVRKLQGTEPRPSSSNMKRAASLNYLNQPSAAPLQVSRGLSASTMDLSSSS

How the values were obtained:
Experiment in all cases: protein microarray (ProtoArray v5.0), streptavidin-Alexa Fluor 647
Conditions in all cases: 3'-biotin; 20 mM Tris (pH 7.5), 5 mM MgCl2, 100 mM KCl, 0.1% Tween-20, A/T-rich and random oligonucleotide blockers; temperature not stated; high values mean tight binding
[1] = system: KIR3DX1 (human)
[2] = system: KIS (human)
[3] = system: KITLG (human)
[4] = molecular target: KLC3 (UniProt Q6P597)
[5] = molecular target: KLC4 (UniProt Q9NSK0)
[6] = system: KLF12 (human)
[7] = system: KLHDC1 (human)
[8] = system: KLHDC2 (human)
[9] = system: KLHDC3 (human)
[10] = system: KLHL17 (human)

In the case of “GGGAGGCTGAGGCAGG [G4-1 biotinylated (PQS2)]”, the binding signal [1] is reported as -0.304 z-score, the binding signal [2] is reported as -0.319 z-score and the binding signal [3] is reported as -0.345 z-score and -0.298 z-score. The binding signal [4] was -0.344 z-score, the binding signal [5] was -0.343 z-score and the binding signal [6] was -0.339 z-score. The binding signal [7] was -0.331 z-score, the binding signal [8] was -0.32 z-score and the binding signal [9] was -0.335 z-score. It also gave a binding signal [10] of -0.31 z-score.
